Results published in US20250345370A1, “MICROBIAL LIBERATION OF N-METHYLSEROTONIN FROM ORANGE FIBER” (Washington University, priority 2022, published 2025).
The source gives many values for each of these; only a part stands here.

Tested on: colon gene expression
Experiment: RNA-Seq of colonic tissue of germ-free mice treated with 50 mg/kg/d N-methylserotonin
Type: in vivo, germ-free C57BL/6J mice

Question: With `CNCCc1c[nH]c2ccc(O)cc12` [N-methylserotonin] as the molecule, how does the log2 fold-change (colon, gene Wdr91) read?
Answer: 0.64

Question: And the log2 fold-change (colon, gene Wfdc2)?
Answer: −0.85

Question: What about the log2 fold-change (colon, gene Wfdc15b) of the same molecule?
Answer: 0.01

Question: What about the log2 fold-change (colon, gene Wiz) of the same molecule?
Answer: 0.55

Question: What about the log2 fold-change (colon, gene Xpr1) of the same molecule?
Answer: −0.33

Question: And the log2 fold-change (colon, gene Zbtb11)?
Answer: −0.33

Question: And the log2 fold-change (colon, gene Zfand5)?
Answer: −0.34

Question: What about the log2 fold-change (colon, gene Zfp185) of the same molecule?
Answer: 2.32

Question: And the log2 fold-change (colon, gene Zfp503)?
Answer: 0.65

Question: And the log2 fold-change (colon, gene Zfp512b)?
Answer: 0.42

Question: And the log2 fold-change (colon, gene Zfp971)?
Answer: −0.46

Question: What about the log2 fold-change (gene Abtb2 (Entrez 99382), downregulated genes in colon) of the same molecule?
Answer: −0.47

Question: And the log2 fold-change (gene Anln (Entrez 68743), downregulated genes in colon)?
Answer: −0.33

Question: And the log2 fold-change (gene Aoc1 (Entrez 76507), downregulated genes in colon)?
Answer: −0.40

Question: What about the log2 fold-change (gene Apaf1 (Entrez 11783), downregulated genes in colon) of the same molecule?
Answer: −0.32

Question: And the log2 fold-change (gene Arrdc4 (Entrez 66412), downregulated genes in colon)?
Answer: −0.37

Question: What about the log2 fold-change (gene Atp5h (Entrez 71679), downregulated genes in colon) of the same molecule?
Answer: −0.27

Question: What about the log2 fold-change (gene BC055324 (Entrez 381306), downregulated genes in colon) of the same molecule?
Answer: −0.59

Question: What about the log2 fold-change (gene Bcl6 (Entrez 12053), downregulated genes in colon) of the same molecule?
Answer: −0.41

Question: What about the log2 fold-change (gene Bmp2k (Entrez 140780), downregulated genes in colon) of the same molecule?
Answer: −0.28

Question: And the log2 fold-change (gene Bzw1 (Entrez 66882), downregulated genes in colon)?
Answer: −0.24

Question: And the log2 fold-change (gene Calm1 (Entrez 12313), downregulated genes in colon)?
Answer: −0.21

Question: And the log2 fold-change (gene Calml4 (Entrez 75600), downregulated genes in colon)?
Answer: −0.27

Question: What about the log2 fold-change (gene Ccnb1 (Entrez 268697), downregulated genes in colon) of the same molecule?
Answer: −0.38

Question: What about the log2 fold-change (gene Chchd3 (Entrez 66075), downregulated genes in colon) of the same molecule?
Answer: −0.26

Question: What about the log2 fold-change (gene Chml (Entrez 12663), downregulated genes in colon) of the same molecule?
Answer: −0.27

Question: And the log2 fold-change (gene Cib1 (Entrez 23991), downregulated genes in colon)?
Answer: −0.26

Question: What about the log2 fold-change (gene Cmas (Entrez 12764), downregulated genes in colon) of the same molecule?
Answer: −0.27

Question: What about the log2 fold-change (gene Cse1l (Entrez 110750), downregulated genes in colon) of the same molecule?
Answer: −0.25

Question: What about the log2 fold-change (gene Cstf2 (Entrez 108062), downregulated genes in colon) of the same molecule?
Answer: −0.26

Question: And the log2 fold-change (gene Dlat (Entrez 235339), downregulated genes in colon)?
Answer: −0.24

Question: And the log2 fold-change (gene Fer1l6 (Entrez 631797), downregulated genes in colon)?
Answer: −0.31

Question: And the log2 fold-change (gene Galnt7 (Entrez 108150), downregulated genes in colon)?
Answer: −0.25

Question: What about the log2 fold-change (gene Gfm2 (Entrez 320806), downregulated genes in colon) of the same molecule?
Answer: −0.26

Question: And the log2 fold-change (gene Glycam1 (Entrez 14663), downregulated genes in colon)?
Answer: −0.11

Question: And the log2 fold-change (gene Gm26448 (Entrez 115487256), downregulated genes in colon)?
Answer: −0.53

Question: And the log2 fold-change (gene Gna13 (Entrez 14674), downregulated genes in colon)?
Answer: −0.25

Question: What about the log2 fold-change (gene Gne (Entrez 50798), downregulated genes in colon) of the same molecule?
Answer: −0.26

Question: What about the log2 fold-change (gene Gsdmcl2 (Entrez 665769), downregulated genes in colon) of the same molecule?
Answer: −0.45

Question: And the log2 fold-change (gene H1f1 (Entrez 80838), downregulated genes in colon)?
Answer: −0.38

Question: And the log2 fold-change (gene H3c3 (Entrez 319148), downregulated genes in colon)?
Answer: −0.52

Question: And the log2 fold-change (gene H3f3a (Entrez 15078), downregulated genes in colon)?
Answer: −0.26

Question: What about the log2 fold-change (gene Igkv4-63 (Entrez 628571), downregulated genes in colon) of the same molecule?
Answer: −0.04

Question: What about the log2 fold-change (gene Itfg1 (Entrez 71927), downregulated genes in colon) of the same molecule?
Answer: −0.29

Question: What about the log2 fold-change (gene Ivns1abp (Entrez 117198), downregulated genes in colon) of the same molecule?
Answer: −0.26

Question: And the log2 fold-change (gene Jpt1 (Entrez 15374), downregulated genes in colon)?
Answer: −0.32

Question: And the log2 fold-change (gene Lipo3 (Entrez 381236), downregulated genes in colon)?
Answer: −0.42

Question: What about the log2 fold-change (gene Lrrc66 (Entrez 231296), downregulated genes in colon) of the same molecule?
Answer: −0.35

Question: And the log2 fold-change (gene Mctp2 (Entrez 244049), downregulated genes in colon)?
Answer: −0.31

Question: And the log2 fold-change (gene Mki67 (Entrez 17345), downregulated genes in colon)?
Answer: −0.34

Question: And the log2 fold-change (gene Mkks (Entrez 59030), downregulated genes in colon)?
Answer: −0.45

Question: What about the log2 fold-change (gene Mkrn1 (Entrez 54484), downregulated genes in colon) of the same molecule?
Answer: −0.24

Question: And the log2 fold-change (gene Mrpl13 (Entrez 68537), downregulated genes in colon)?
Answer: −0.32

Question: And the log2 fold-change (gene Ncaph (Entrez 215387), downregulated genes in colon)?
Answer: −0.35

Question: And the log2 fold-change (gene Ndfip2 (Entrez 76273), downregulated genes in colon)?
Answer: −0.26

Question: What about the log2 fold-change (gene Ostf1 (Entrez 20409), downregulated genes in colon) of the same molecule?
Answer: −0.26

Question: And the log2 fold-change (gene Oxct1 (Entrez 67041), downregulated genes in colon)?
Answer: −0.25

Question: What about the log2 fold-change (gene Papolg (Entrez 216578), downregulated genes in colon) of the same molecule?
Answer: −0.38

Question: What about the log2 fold-change (gene Pclaf (Entrez 68026), downregulated genes in colon) of the same molecule?
Answer: −0.38

Question: What about the log2 fold-change (gene Pik3c3 (Entrez 225326), downregulated genes in colon) of the same molecule?
Answer: −0.32

Question: And the log2 fold-change (gene Plin2 (Entrez 11520), downregulated genes in colon)?
Answer: −0.30

Question: What about the log2 fold-change (gene Ppip5k2 (Entrez 227399), downregulated genes in colon) of the same molecule?
Answer: −0.23

Question: And the log2 fold-change (gene Prps2 (Entrez 110639), downregulated genes in colon)?
Answer: −0.31

Question: And the log2 fold-change (gene Rasef (Entrez 242505), downregulated genes in colon)?
Answer: −0.30

Question: And the log2 fold-change (gene Rnf141 (Entrez 67150), downregulated genes in colon)?
Answer: −0.24

Question: And the log2 fold-change (gene Scml4 (Entrez 268297), downregulated genes in colon)?
Answer: −0.30

Question: What about the log2 fold-change (gene Shcbp1 (Entrez 20419), downregulated genes in colon) of the same molecule?
Answer: −0.45

Question: And the log2 fold-change (gene Slc6a4 (Entrez 15567), downregulated genes in colon)?
Answer: −0.47

Question: And the log2 fold-change (gene Smim31 (Entrez 407795), downregulated genes in colon)?
Answer: −0.35

Question: And the log2 fold-change (gene St3gal4 (Entrez 20443), downregulated genes in colon)?
Answer: −0.34

Question: What about the log2 fold-change (gene Stk17b (Entrez 98267), downregulated genes in colon) of the same molecule?
Answer: −0.43

Question: And the log2 fold-change (gene Tm9sf2 (Entrez 68059), downregulated genes in colon)?
Answer: −0.20

Question: And the log2 fold-change (gene Tmed7 (Entrez 66676), downregulated genes in colon)?
Answer: −0.24

Question: What about the log2 fold-change (gene Tmprss4 (Entrez 214523), downregulated genes in colon) of the same molecule?
Answer: −0.26

Question: What about the log2 fold-change (gene Tnfaip3 (Entrez 21929), downregulated genes in colon) of the same molecule?
Answer: −0.38

Question: What about the log2 fold-change (gene Txndc16 (Entrez 70561), downregulated genes in colon) of the same molecule?
Answer: −0.28

Question: What about the log2 fold-change (gene Uba7 (Entrez 74153), downregulated genes in colon) of the same molecule?
Answer: −0.31

Question: And the log2 fold-change (gene Upp1 (Entrez 22271), downregulated genes in colon)?
Answer: −0.52

Question: And the log2 fold-change (gene Yes1 (Entrez 22612), downregulated genes in colon)?
Answer: −0.26

Question: And the log2 fold-change (gene Zg16 (Entrez 69036), downregulated genes in colon)?
Answer: −0.30

Question: What about the log2 fold-change (gene Zwilch (Entrez 68014), downregulated genes in colon) of the same molecule?
Answer: −0.52
